## Primary screen of a compound library

Data taken from ChEMBL document CHEMBL3988442, “University of Dundee, Small-Polar-MMV Screening Library” (2021).

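Viability assay of Plasmodium falciparum sporozoites; the read-out is not stated. The concentration is filed as 10 mM, unlikely as a test dose, so the dose is not known. Direction is inferred from retests: higher values go with lower viability. Strong results were mostly tested again. Of about 34,000 compounds tested this way, about 280 (0.84%) reached 50% or more in at least one test.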

Values are the deposited “Percent Effect”, in %. The controls that fix the scale are not given in the record; negative values are as filed. This is an unselected part of the compounds tested. Two or more numbers in one place are separate tests of the same structure; such repeats can differ widely.

structure	percent effect
O=C(CN1CCS(=O)(=O)CC1)NCc1cccc(Br)c1	6.257
CCCC(NC(=O)c1cc(C)n(C2CC2)c1C)c1nnn[nH]1 (centres unmarked)	-6.223
COCCO[C@@H]1CCN(C(=O)c2ccc(C)o2)[C@@H]1Cc1cnn(C)c1	-10.15
CCc1nnc2n1CCN(C(=O)c1cc(C)n(-c3ccccc3)c1C)C2	9.337 and 4.219 and -2.967
CN1CCN(c2cc(CNC(=O)c3ccc(Cl)o3)ccn2)CC1	-3.134
C=C(C)CN1CCC(Nc2nc(C)ns2)CC1	-15.02
O=C(NCCNC(=O)c1scnc1Cl)c1ccoc1	12.49
CC(C)c1nc(C2CCCN2CC(=O)N2CCNC2=O)no1 (centres unmarked)	0.3298
CS(=O)(=O)c1cccc(C(N)c2ccc(Cl)cc2)c1 (centres unmarked)	6.507
CC(C)n1[nH]c(=O)c2c1NC(=O)CC2c1ccc2ncccc2c1 (centres unmarked)	12.79
CC(=O)OCc1ccc(CN2CCCCCC2c2cc(C)no2)o1 (centres unmarked)	10.5
[H][C@@]12CCN(C(=O)C3CCOCC3)C[C@@]1([H])O[C@H](c1ccncn1)C2	-7.718
COCCn1cc(C(=O)N2CCCC2c2cccs2)c2ccccc21 (centres unmarked)	6.505
Cn1cc(-c2nnn3c2COC(CNCc2nccs2)C3)cn1 (centres unmarked)	-3.468
CC(=O)N1CCC2(CCN(C(=O)c3cccc(C(F)(F)F)c3)CC2)C1	0.2433
CC(=O)c1ccc(OCC(=O)NC(C)CCc2ccco2)cc1 (centres unmarked)	-19.18
CCN(Cc1cccc(F)c1)Cn1nc(C)c2c(C)onc2c1=O	3.533
CN(Cc1ccccn1)C(=O)c1nc(S(C)(=O)=O)n2ccccc12	2.377
Cc1ccc2c(c1C)OCC2NCc1ccc(C#N)cc1 (centres unmarked)	20.31
O=C(c1cccs1)N1CCCC(c2cc(C(F)F)n3ncnc3n2)C1 (centres unmarked)	-7.458
CC[C@H](C)[C@H](N)C(=O)Nc1nc(-c2cnc(N(C)C)nc2)cs1	-8.044
CC/C=C(\C)CN1CCC(CNC(=O)c2c[nH]c(=O)c(Cl)c2)C1 (centres unmarked)	-2.105
Cc1ccccc1CNC(=O)CNc1ccc(OC2CCOC2)cc1 (centres unmarked)	9.669
O=C(NCCNc1ccc(C(F)(F)F)cn1)c1ccc(F)cc1Cl	-7.721
Cc1nc(C)n(C2CCCN(C(=O)c3cccnc3NC(C)C)C2)n1 (centres unmarked)	-11.15
O=C(CCc1cc2n(n1)CCN(Cc1ncc[nH]1)C2)N1CCCC1	10.5
O=C1NC2(CCCN(C(=O)CCn3cncn3)C2)Oc2ccccc21 (centres unmarked)	1.491
Cn1nccc1-c1ncc(-c2cc(C(=O)O)n(CC3CC3)c2)cn1	10.23
O=C(NC1CCC1)c1c2c(N3CCCC3)ncnc2n2ccccc12	1.703
CC[C@@H](C)[C@@H](N)C(=O)Nc1cccc(-c2cnc(N(C)C)nc2)c1	4.996
CCn1nnc2c1C(COC)CN(C(=O)Cc1cccs1)C2 (centres unmarked)	1.127
CC1c2ncc(COCC3CC3)n2CCN1C(=O)c1ccn(C)n1 (centres unmarked)	-14.36
CS(=O)(=O)NC1CCN(C(=O)NCc2cc[nH]n2)CC1	4.938
CC(C)(Oc1ccc(C(N)=O)cc1)C(=O)N(CCC#N)C1CC1	-18.98
Cl.Cn1cc([C@@H]2CN(S(C)(=O)=O)C[C@H]2N)c2ccncc21	10.78
CC(=O)Nc1ccc(CNCc2ccc(CS(C)(=O)=O)cc2)cc1	23.86
O=C(O)C(F)(F)F.O=C(O)C(F)(F)F.[H][C@@]12CCN(Cc3cc(C)on3)C[C@@]1([H])O[C@@H](C(=O)Nc1cccnc1C)C2	16.33
CC(=O)N1CCC(Cc2cnc(Nc3cc(C)on3)cn2)CC1	5.563
O=C(c1sccc1C1CC1)N1CCCN(Cc2cscn2)CC1	9.898
CC(C)Oc1ncccc1CNC(=O)C1CCCN(C(=O)C2CC2)C1 (centres unmarked)	-7.42
CN(C)[C@@H]1CN(Cc2ccc(O)cc2)C[C@H]1c1cn(C)c2ccccc12.Cl	-4.921
CN(C)CC(=O)N1CCc2sc(C(=O)N3CCOCC3)cc21	8.776
O=C(O)C(F)(F)F.[H][C@@]12CCN(Cc3ccc4c(c3)OCO4)C[C@]1([H])[C@H](C(=O)N(C)C)CCO2	-17.11
CCOCCn1nnc(C2(NC(=O)c3ccccc3)CCCC2)n1	-31.97
CCN(Cc1ccc2c(c1)OCO2)C(=O)c1cccnc1O	1.092
O=C(O)C(F)(F)F.[H][C@@]12C[C@H](C(=O)N3CCN(C)CC3)[C@@]([H])(CN(S(=O)(=O)CCC)C1)O2	6.567
COC(=O)c1cccc(C(=O)N2CCCC(n3cncn3)C2)c1 (centres unmarked)	-2.107
CC1(C(=O)N2CCSCC2)CNCCO1 (centres unmarked)	0.9064
CCn1ncc2c1C(COC)CN(Cc1ccc(OC)cc1)C2 (centres unmarked)	-27.45
Cn1cnc2c1CCN(CCS(=O)(=O)c1ccc(Cl)cc1)C2	4.009
CN(C)S(=O)(=O)N(Cc1cscn1)c1ccccc1	13.91
Cc1cc(C[C@@H]2COC[C@H]2NCc2ccc(Cl)c(Cl)c2)on1.O=C(O)CC(O)(CC(=O)O)C(=O)O	9.975 and 23.3 and 14.61
COc1ccccc1N1CCN(c2nc(N)nc3[nH]cnc23)CC1	-1.74
O=C(c1ccc(-c2cnco2)cc1)N1CCC(Nc2cccnn2)CC1	8.523

The last 6 entries again:

structure,percent effect
CCn1ncc2c1C(COC)CN(Cc1ccc(OC)cc1)C2 (centres unmarked),-27.45
Cn1cnc2c1CCN(CCS(=O)(=O)c1ccc(Cl)cc1)C2,4.009
CN(C)S(=O)(=O)N(Cc1cscn1)c1ccccc1,13.91
Cc1cc(C[C@@H]2COC[C@H]2NCc2ccc(Cl)c(Cl)c2)on1.O=C(O)CC(O)(CC(=O)O)C(=O)O,9.975 and 23.3 and 14.61
COc1ccccc1N1CCN(c2nc(N)nc3[nH]cnc23)CC1,-1.74
O=C(c1ccc(-c2cnco2)cc1)N1CCC(Nc2cccnn2)CC1,8.523